The record followed here is PubChem BioAssay AID248 (DTP/NCI, 2004).

This experiment relates to L1210 leukemia ip in BDF1 mice, survival T/C. As to the kind of experiment: NCI In Vivo Anticancer Drug Screen. Data for tumor model L1210 Leukemia (intraperitoneal) in B6D2F1 (BDF1) mice. Conditions: T/C endpoint: mean survival time, higher T/C = longer survival.
The mark [1] stands for this setting: dose: 25.0 mg/kg/injection, schedule: Q01DX009 (ip), vehicle: saline.
[2] abbreviates: dose: 25.0 mg/kg/injection, schedule: Q04DX003 (ip), vehicle: saline.
The mark [3] stands for this setting: dose: 50.0 mg/kg/injection, schedule: Q01DX009 (ip), vehicle: saline.
The mark [4] stands for this setting: dose: 100.0 mg/kg/injection, schedule: Q04DX003 (ip), vehicle: saline.
Setting [5] is: dose: 200.0 mg/kg/injection, schedule: Q04DX003 (ip), vehicle: saline.
[6] abbreviates: dose: 400.0 mg/kg/injection, schedule: Q04DX003 (ip), vehicle: saline.
The mark [7] stands for this setting: dose: 200.0 mg/kg/injection, schedule: Q01DX001 (ip), vehicle: saline.
Where [8] appears, read: dose: 400.0 mg/kg/injection, schedule: Q01DX001 (ip), vehicle: saline.
Where [9] appears, read: dose: 200.0 mg/kg/injection, schedule: Q01DX001 (ip), vehicle: carboxymethylcellulose (CMC).
[10] abbreviates: dose: 100.0 mg/kg/injection, schedule: Q01DX001 (ip), vehicle: carboxymethylcellulose (CMC).
Setting [11] is: dose: 400.0 mg/kg/injection, schedule: Q01DX001 (ip), vehicle: carboxymethylcellulose (CMC).
Setting [12] is: dose: 50.0 mg/kg/injection, schedule: Q04DX003 (ip), vehicle: saline.
[13] abbreviates: dose: 100.0 mg/kg/injection, schedule: Q01DX009 (ip), vehicle: saline with Tween-80.
Setting [14] is: dose: 200.0 mg/kg/injection, schedule: Q01DX009 (ip), vehicle: saline with Tween-80.

The list shows only some results of the screen, not a fair sample: it gathers tests that were run many times, whatever their T/C, doses with no T/C, and many T/C values between a quarter and a half above the control. Further doses and runs are listed elsewhere. T/C is the treated group as % of the vehicle group. Some entries give survivors of the animals treated and no T/C: the source holds a T/C of zero for them, seemingly a mark for toxic or unscored doses. Some survivor counts are full or nearly so, which does not show that the dose was tolerated: survival well below the control is almost never listed, so the zero probably covers shortened survival too. Survivors were counted at the toxicity check, usually on the fifth day, unless a day is given; later deaths do not show. Schedules are NCI's codes, read here as Q, the interval in days (D) or hours (H), X, the number of doses. For survival time, this PubChem deposit counts one and a half times the control or more as active, and values a quarter to a half above the control carry no call in these data; other NCI protocols may use other cut-offs. Some entries hold several experiments; the results are listed from low to high. Some schedules carry Z or #; the key to these is not given.

In the case of `O=NNc1ccccn1`, the T/C (dose: 12.5 mg/kg/injection, schedule: Q01DX009 (ip), vehicle: saline) was 137 % of control; the T/C (dose: 12.5 mg/kg/injection, schedule: Q04DX003 (ip), vehicle: saline) is 131 and 136 % of control; the T/C (dose: 18.0 mg/kg/injection, schedule: Q04DX003 (ip), vehicle: saline) was 134 % of control; the T/C (dose: 18.75 mg/kg/injection, schedule: Q04DX003 (ip), vehicle: saline) is 134 % of control; the T/C under setting [2] is 131 % of control. The survivor count runs as follows: under setting [1], 6 of 6; under setting [3], 4 of 6; under setting [4], 5 of 6; under setting [5], 2 of 4; under setting [6], 0 of 6.
As for `CCN(CC)CCCNc1ccnc2cc(Cl)ccc12`, the survivor count is 0 of 4 under setting [7] and 0 of 4 under setting [8].
For `CNC(=O)Oc1cccc2c1OC(C)(C)C2`, the survivor count runs as follows: (dose: 6.25 mg/kg/injection, schedule: Q01DX001 (ip), vehicle: Klucel (hydroxypropylcellulose) (HPC)) 1 of 6; (dose: 12.5 mg/kg/injection, schedule: Q01DX001 (ip), vehicle: Klucel (hydroxypropylcellulose) (HPC)) 0 of 6; (dose: 25.0 mg/kg/injection, schedule: Q01DX001 (ip), vehicle: Klucel (hydroxypropylcellulose) (HPC)) 0 of 6; (dose: 50.0 mg/kg/injection, schedule: Q01DX001 (ip), vehicle: Klucel (hydroxypropylcellulose) (HPC)) 0 of 6; (dose: 100.0 mg/kg/injection, schedule: Q01DX001 (ip), vehicle: Klucel (hydroxypropylcellulose) (HPC)) 1 of 6; (dose: 200.0 mg/kg/injection, schedule: Q01DX001 (ip), vehicle: Klucel (hydroxypropylcellulose) (HPC)) 0 of 6. Further, the survivor count (dose: 400.0 mg/kg/injection, schedule: Q01DX001 (ip), vehicle: Klucel (hydroxypropylcellulose) (HPC)) is 0 of 6.
On to `CCOC(=O)NC(NC(=O)OCC)c1ccc(Cl)cc1Cl`, for which the survivor count under setting [9] was 4 of 4.
Regarding `[N-]=[N+]=C1N=CN=C1c1ncn[nH]1`, the T/C is, setting by setting: (dose: 12.0 mg/kg/injection, schedule: Q01DX015 (ip), vehicle: carboxymethylcellulose (CMC)) 128 % of control; (dose: 12.0 mg/kg/injection, schedule: Q01DX Z (ip), vehicle: carboxymethylcellulose (CMC)) 130 % of control; (dose: 17.0 mg/kg/injection, schedule: Q01DX015 (ip), vehicle: carboxymethylcellulose (CMC)) 129 % of control; (dose: 18.0 mg/kg/injection, schedule: Q01DX Z (ip), vehicle: carboxymethylcellulose (CMC)) 130 % of control; (dose: 25.0 mg/kg/injection, schedule: Q01DX015 (ip), vehicle: carboxymethylcellulose (CMC)) 132 % of control; (dose: 25.0 mg/kg/injection, schedule: Q01DX Z (ip), vehicle: carboxymethylcellulose (CMC)) 133 % of control. Further, the T/C runs as follows: (dose: 37.0 mg/kg/injection, schedule: Q01DX015 (ip), vehicle: carboxymethylcellulose (CMC)) 143 and 147 % of control; (dose: 37.0 mg/kg/injection, schedule: Q01DX Z (ip), vehicle: carboxymethylcellulose (CMC)) 138 % of control. Also, the survivor count is, setting by setting: (dose: 80.0 mg/kg/injection, schedule: Q01DX015 (ip), vehicle: carboxymethylcellulose (CMC)) 1 of 6; under setting [10], 3 of 6; (dose: 120.0 mg/kg/injection, schedule: Q01DX015 (ip), vehicle: carboxymethylcellulose (CMC)) 0 of 6; under setting [9], 0 of 6; under setting [11], 0 of 6.
On to `CC(C)c1cc(CN(C)C)cc(C(C)C)c1O`, for which, for the setting “dose: 400.0 mg/kg/injection, schedule: Q04DX003 (ip), vehicle: Klucel (hydroxypropylcellulose) (HPC)”, the survivor count is recorded as 0 of 6.
Take `COC(=O)/C=C(/Nc1cc(Cl)cc(Cl)c1)C(=O)OC`: the survivor count (dose: 200.0 mg/kg/injection, schedule: Q04DX003 (ip), vehicle: other) is on record as 6 of 6.
With `COC1C(=O)CCC2(CO2)C1(O)C1(C)OC1CC=C(C)C` (stereo not given), the survivor count under setting [6] is given as 6 of 6.
As to `C[n+]1ccc(C#N)c2ccccc21`, the survivor count by setting is: under setting [1], 4 of 6; under setting [2], 2 of 6; under setting [3], 0 of 6; under setting [12], 0 of 6.
Take `c1ccc(CCC[P+](c2ccccc2)(c2ccccc2)c2ccccc2)cc1`: the survivor count (dose: 80.0 mg/kg/injection, schedule: Q01DX001 (ip), vehicle: saline) is recorded as 0 of 6; the survivor count (dose: 100.0 mg/kg/injection, schedule: Q01DX001 (ip), vehicle: saline) is given as 0 of 4; the survivor count under setting [7] was 0 of 4; the survivor count under setting [8] is 0 of 4.
As to `C[n+]1c(-c2cc(Cl)cc(Cl)c2)c2cc([N+](=O)[O-])ccc2c2ccccc21`, for the setting “dose: 400.0 mg/kg/injection, schedule: Q01DX009 (ip), vehicle: water”, the survivor count was 4 of 6.
With `NNC(=O)CNc1ccc(F)cc1Cl`, the survivor count (dose: 400.0 mg/kg/injection, schedule: Q04DX002 (ip), vehicle: Klucel (hydroxypropylcellulose) (HPC)) was 1 of 3.
On to `COc1ccc(Nc2ccnc3cc(Cl)ccc23)cc1CN(CCCl)C(C)CCl` (stereo not given), for which the survivor count (dose: 50.0 mg/kg/injection, schedule: Q01DX001 (ip), vehicle: carboxymethylcellulose (CMC)) is on record as 1 of 4; the survivor count under setting [10] was 1 of 4; the survivor count under setting [9] is 0 of 4; the survivor count under setting [11] was 0 of 4.
On to `O=C(O)c1cccc(CBr)c1CBr`, for which the survivor count (dose: 25.0 mg/kg/injection, schedule: Q01DX009 (ip), vehicle: saline with Tween-80) is given as 0 of 6.
With `CC(C)(C)OC(=O)CNC(=O)CCl`, the survivor count under setting [6] was 2 of 6.
Take `C=CCNCC(O)c1ccccc1` (stereo not given): the survivor count runs as follows: (dose: 200.0 mg/kg/injection, schedule: Q01DX009 (ip), vehicle: Klucel (hydroxypropylcellulose) (HPC)) 2 of 6; (dose: 400.0 mg/kg/injection, schedule: Q01DX009 (ip), vehicle: Klucel (hydroxypropylcellulose) (HPC)) 1 of 6.
In the case of `O=NCC1(Cl)CC2C=CC1C2` (stereo not given), the survivor count runs as follows: under setting [13], 1 of 6; under setting [14], 0 of 6; (dose: 400.0 mg/kg/injection, schedule: Q01DX009 (ip), vehicle: saline with Tween-80) 0 of 6.
Consider `CCCCC(CC)COC(=O)C[N+](C)(C)CCOC(c1ccccc1)c1ccccc1` (stereo not given), for which the survivor count runs as follows: (dose: 25.0 mg/kg/injection, schedule: Q04DX003 (ip), vehicle: saline with Tween-80) 3 of 6; under setting [2], 2 of 6; under setting [12], 0 of 6; (dose: 100.0 mg/kg/injection, schedule: Q04DX003 (ip), vehicle: saline with Tween-80) 0 of 6; under setting [4], 0 of 6; (dose: 200.0 mg/kg/injection, schedule: Q04DX003 (ip), vehicle: saline with Tween-80) 0 of 6. For the same compound, the survivor count (dose: 400.0 mg/kg/injection, schedule: Q04DX003 (ip), vehicle: saline with Tween-80) is 0 of 6.
On to `Cc1ccc(NC(=O)COc2cc(Cl)c(Cl)cc2Cl)cc1C`, for which the survivor count by setting is: under setting [13], 6 of 6; under setting [14], 6 of 6.
For `Cc1cnc(C(=O)O)c(N)n1`, under “dose: 300.0 mg/kg/injection, schedule: Q01DX001 (ip), vehicle: saline”, the survivor count is recorded as 3 of 6.
In the case of `CC(CCc1ccccc1)NC(C)C(O)c1ccc(O)cc1` (stereo not given), the survivor count is listed as 2 of 6 (dose: 200.0 mg/kg/injection, schedule: Q01DX009 (ip), vehicle: saline); 4 of 4 under setting [5]; 1 of 6 (dose: 400.0 mg/kg/injection, schedule: Q01DX009 (ip), vehicle: saline).
